Results are given in words; binding and its absence hold for the method and conditions named. In cells and extracts the contact can be indirect. Binding can be weak; no strength is given.

The target in the assay is FAdV-4 hexon protein (flag-TST-hexon) (fowl adenovirus serotype 4 (FAdV-4)). Put plainly: co-IP; lysate of LMH cells stably expressing flag-TST-hexon on anti-FLAG magnetic beads, 4°C overnight, FLAG elution; blots with anti-CCT5, anti-CCT7, anti-HSP70; flag control vector cells as control.

B1: chaperonin-containing TCP-1 subunit 7 (CCT7) (protein, UniProt Q5ZJK8 1-553)
chain: MMPTPVILLKEGTDTSQGIPQLVSNINACQVIAEAVRTTLGPRGMDKLIVDDRGKATISNDGATILKLLDVVHPAAKTLVDIAKSQDAEVGDGTTSVTLLAAEFLKQVKPYVEEGLHPQIIIRAFRTATQLAVNKIKDIAVSVKKEDKDEQRSLLEKCAATALSSKLISQSKEFFSKMVVDAVMMLDDLLQLKMIGIKKVQGGALEDSQLVAGVAFKKTFSYAGFEMQPKKYQSPKIALLNVELELKAEKDNAEVRVNTVEDYQAIVDAEWNILYDKLDKIHKSGAKVVLSKLPIGDVATQYFADRDMFCAGRVPEEDLKRTMMACGGSIQTSVNALSDDVLGRCELFEEIQIGGDRYNFFTGCPKAKTCTIILRGGAEQFMEETERSLHDAIMIVRRAIKNDSVVAGGGAIEMELSKYLRDYSRTIPGKQQLLIGAYAKALEIIPRQLCDNAGFDATNILNKLRAKHAQGGMWYGVDVNNEDIADNFEACVWEPAIVRINALTAASEAACLIVSVDETIKNPRSTVDAPPGGRGRGRGQTPQPLRPRSVALS
In the case of B1, the binding entry is recorded as “binds”.
